Measured values published in doi:10.1101/2023.08.01.551545.
Results are given in words; binding and its absence hold for the method and conditions named. In cells and extracts the contact can be indirect. These calls come from enrichment with a bait or labelling near it, and not all partners need be listed. For some assays here: No binding means not detected with the bait. Where a sequence is shown, tags or fusion partners need not be part of it.

T1: HRDE-2::2xTy1::GFP (C. elegans) (UniProt Q22058)
T1 sequence: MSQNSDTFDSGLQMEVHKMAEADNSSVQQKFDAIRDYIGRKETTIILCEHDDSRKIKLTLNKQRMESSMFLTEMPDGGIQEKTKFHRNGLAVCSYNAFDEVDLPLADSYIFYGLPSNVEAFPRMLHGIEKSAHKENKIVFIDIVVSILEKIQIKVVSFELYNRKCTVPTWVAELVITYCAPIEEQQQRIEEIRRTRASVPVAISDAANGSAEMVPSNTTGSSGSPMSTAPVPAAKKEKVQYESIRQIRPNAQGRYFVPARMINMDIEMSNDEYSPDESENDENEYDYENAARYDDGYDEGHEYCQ

T2: SIMR-1::mCherry::2xHA (C. elegans) (UniProt O01477)
T2 sequence: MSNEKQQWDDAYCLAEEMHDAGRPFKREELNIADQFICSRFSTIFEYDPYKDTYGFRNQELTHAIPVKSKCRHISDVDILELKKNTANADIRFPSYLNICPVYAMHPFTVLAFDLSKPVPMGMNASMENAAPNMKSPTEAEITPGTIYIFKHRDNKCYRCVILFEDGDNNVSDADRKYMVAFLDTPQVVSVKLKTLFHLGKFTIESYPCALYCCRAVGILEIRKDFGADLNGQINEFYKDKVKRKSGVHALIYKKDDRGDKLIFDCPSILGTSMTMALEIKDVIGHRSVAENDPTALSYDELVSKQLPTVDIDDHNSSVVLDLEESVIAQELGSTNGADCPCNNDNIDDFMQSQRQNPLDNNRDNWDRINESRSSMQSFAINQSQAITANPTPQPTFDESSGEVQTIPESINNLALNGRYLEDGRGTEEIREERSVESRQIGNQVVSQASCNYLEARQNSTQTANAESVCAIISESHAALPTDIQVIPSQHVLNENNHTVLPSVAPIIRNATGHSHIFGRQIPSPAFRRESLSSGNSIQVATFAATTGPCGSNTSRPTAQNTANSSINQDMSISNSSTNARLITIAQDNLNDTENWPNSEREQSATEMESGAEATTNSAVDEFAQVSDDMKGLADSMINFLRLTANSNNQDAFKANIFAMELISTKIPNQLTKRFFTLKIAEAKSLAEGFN

T3: GFP::3xFLAG::HRDE-1(HK-AA) (C. elegans) (UniProt Q09249)
T3 sequence: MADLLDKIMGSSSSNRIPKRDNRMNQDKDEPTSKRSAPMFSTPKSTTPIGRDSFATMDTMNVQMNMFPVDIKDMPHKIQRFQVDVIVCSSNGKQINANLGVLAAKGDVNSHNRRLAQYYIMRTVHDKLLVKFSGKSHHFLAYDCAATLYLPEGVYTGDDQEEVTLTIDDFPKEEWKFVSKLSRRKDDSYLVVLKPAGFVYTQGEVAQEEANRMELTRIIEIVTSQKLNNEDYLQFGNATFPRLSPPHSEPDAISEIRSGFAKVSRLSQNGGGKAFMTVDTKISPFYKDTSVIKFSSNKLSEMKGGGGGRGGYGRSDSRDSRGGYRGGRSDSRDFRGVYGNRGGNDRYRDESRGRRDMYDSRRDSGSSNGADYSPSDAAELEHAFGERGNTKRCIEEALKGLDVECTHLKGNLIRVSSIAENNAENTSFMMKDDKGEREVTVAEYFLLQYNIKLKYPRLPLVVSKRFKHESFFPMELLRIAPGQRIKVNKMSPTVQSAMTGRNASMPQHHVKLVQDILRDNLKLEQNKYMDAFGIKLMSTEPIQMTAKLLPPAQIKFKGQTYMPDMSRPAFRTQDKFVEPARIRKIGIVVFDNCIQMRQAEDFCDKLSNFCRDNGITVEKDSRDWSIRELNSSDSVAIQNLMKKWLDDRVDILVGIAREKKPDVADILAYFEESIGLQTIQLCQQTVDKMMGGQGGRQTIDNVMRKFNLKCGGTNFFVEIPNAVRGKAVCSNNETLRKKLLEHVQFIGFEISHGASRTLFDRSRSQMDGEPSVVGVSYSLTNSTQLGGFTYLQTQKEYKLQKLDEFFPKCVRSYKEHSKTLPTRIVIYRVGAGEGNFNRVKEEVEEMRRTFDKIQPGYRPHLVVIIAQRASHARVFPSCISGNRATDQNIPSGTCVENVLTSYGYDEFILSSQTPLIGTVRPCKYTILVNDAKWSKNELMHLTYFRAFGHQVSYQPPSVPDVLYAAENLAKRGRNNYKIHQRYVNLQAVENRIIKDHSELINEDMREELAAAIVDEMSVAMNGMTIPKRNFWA


Key:
Assay in all cases: affinity purification with mass spectrometry
[1] = target: T1, HRDE-2::2xTy1::GFP (C. elegans)
[2] = target: T2, SIMR-1::mCherry::2xHA (C. elegans)
[3] = target: T3, GFP::3xFLAG::HRDE-1(HK-AA) (C. elegans)

| Binder | binding [1] | binding [2] | binding [3] |
| --- | --- | --- | --- |
| HRDE-1, nuclear Argonaute protein (untagged, in the HRDE-2::2xTy1::GFP strain) (protein, UniProt Q09249 1-1032) MADLLDKIMGSSSSNRIPKRDNRMNQDKDEPTSKRSAPMFSTPKSTTPIGRDSFATMDTMNVQMNMFPVDIKDMPHKIQRFQVDVIVCSSNGKQINANLGVLAAKGDVNSHNRRLAQYYIMRTVHDKLLVKFSGKSHHFLAYDCAATLYLPEGVYTGDDQEEVTLTIDDFPKEEWKFVSKLSRRKDDSYLVVLKPAGFVYTQGEVAQEEANRMELTRIIEIVTSQKLNNEDYLQFGNATFPRLSPPHSEPDAISEIRSGFAKVSRLSQNGGGKAFMTVDTKISPFYKDTSVIKFSSNKLSEMKGGGGGRGGYGRSDSRDSRGGYRGGRSDSRDFRGVYGNRGGNDRYRDESRGRRDMYDSRRDSGSSNGADYSPSDAAELEHAFGERGNTKRCIEEALKGLDVECTHLKGNLIRVSSIAENNAENTSFMMKDDKGEREVTVAEYFLLQYNIKLKYPRLPLVVSKRFKHESFFPMELLRIAPGQRIKVNKMSPTVQSAMTGRNASMPQHHVKLVQDILRDNLKLEQNKYMDAFGIKLMSTEPIQMTAKLLPPAQIKFKGQTYMPDMSRPAFRTQDKFVEPARIRKIGIVVFDNCIQMRQAEDFCDKLSNFCRDNGITVEKDSRDWSIRELNSSDSVAIQNLMKKWLDDRVDILVGIAREKKPDVHDILKYFEESIGLQTIQLCQQTVDKMMGGQGGRQTIDNVMRKFNLKCGGTNFFVEIPNAVRGKAVCSNNETLRKKLLEHVQFIGFEISHGASRTLFDRSRSQMDGEPSVVGVSYSLTNSTQLGGFTYLQTQKEYKLQKLDEFFPKCVRSYKEHSKTLPTRIVIYRVGAGEGNFNRVKEEVEEMRRTFDKIQPGYRPHLVVIIAQRASHARVFPSCISGNRATDQNIPSGTCVENVLTSYGYDEFILSSQTPLIGTVRPCKYTILVNDAKWSKNELMHLTYFRAFGHQVSYQPPSVPDVLYAAENLAKRGRNNYKIHQRYVNLQAVENRIIKDHSELINEDMREELAAAIVDEMSVAMNGMTIPKRNFWA | binds |  |  |
| NRDE-3, nuclear Argonaute protein (protein, UniProt Q21691 1-1057) MDLLDKVMGEMGSKPGSTAKKPATSASSTPRTNVWGTAKKPSSQQQPPKPLFTTPGSQQGSLGGRIPKREHTDRTGPDPKRKPLGGLSVPDSFNNFGTFRVQMNAWNLDISKMDERISRIMFRATLVHTDGRRFELSLGVSAFSGDVNRQQRRQAQCLLFRAWFKRNPELFKGMTDPAIAAYDAAETIYVGCSFFDVELTEHVCHLTEADFSPQEWKIVSLISRRSGSTFEIRIKTNPPIYTRGPNALTLENRSELTRIIEAITDQCLHNEKFLLYSSGTFPTKGGDIASPDEVTLIKSGFVKTTKIVDRDGVPDAIMTVDTTKSPFYKDTSLLKFFTAKMDQLTNSGGGPRGHNGGRERRDGGGNSRKYDDRRSPRDGEIDYDERTVSHYQRQFQDERISDGMLNTLKQSLKGLDCQPIHLKDSKANRSIMIDEIHTGTADSVTFEQKLPDGEMKLTSITEYYLQRYNYRLKFPHLPLVTSKRAKCYDFYPMELMSILPGQRIKQSHMTVDIQSYMTGKMSSLPDQHIKQSKLVLTEYLKLGDQPANRQMDAFRVSLKSIQPIVTNAHWLSPPDMKFANNQLYSLNPTRGVRFQTNGKFVMPARVKSVTIINYDKEFNRNVDMFAEGLAKHCSEQGMKFDSRPNSWKKVNLGSSDRRGTKVEIEEAIRNGVTIVFGIIAEKRPDMHDILKYFEEKLGQQTIQISSETADKFMRDHGGKQTIDNVIRKLNPKCGGTNFLIDVPESVGHRVVCNNSAEMRAKLYAKTQFIGFEMSHTGARTRFDIQKVMFDGDPTVVGVAYSLKHSAQLGGFSYFQESRLHKLTNLQEKMQICLNAYEQSSSYLPETVVVYRVGSGEGDYPQIVNEVNEMKLAARKKKHGYNPKFLVICTQRNSHIRVFPEHINERGKSMEQNVKSGTCVDVPGASHGYEEFILCCQTPLIGTVKPTKYTIIVNDCRWSKNEIMNVTYHLAFAHQVSYAPPAIPNVSYAAQNLAKRGHNNYKTHTKLVDMNDYSYRIKEKHEEIISSEEVDDILMRDFIETVSNDLNAMTINGRNFWA |  | binds |  |
| HRDE-2 (untagged, found or sought by mass spectrometry) (protein, UniProt Q22058 1-305) MSQNSDTFDSGLQMEVHKMAEADNSSVQQKFDAIRDYIGRKETTIILCEHDDSRKIKLTLNKQRMESSMFLTEMPDGGIQEKTKFHRNGLAVCSYNAFDEVDLPLADSYIFYGLPSNVEAFPRMLHGIEKSAHKENKIVFIDIVVSILEKIQIKVVSFELYNRKCTVPTWVAELVITYCAPIEEQQQRIEEIRRTRASVPVAISDAANGSAEMVPSNTTGSSGSPMSTAPVPAAKKEKVQYESIRQIRPNAQGRYFVPARMINMDIEMSNDEYSPDESENDENEYDYENAARYDDGYDEGHEYCQ |  | no binding | binds |
| SIMR-1 (untagged, in the HRDE-2::2xTy1::GFP strain) (protein, UniProt O01477 1-691) MSNEKQQWDDAYCLAEEMHDAGRPFKREELNIADQFICSRFSTIFEYDPYKDTYGFRNQELTHAIPVKSKCRHISDVDILELKKNTANADIRFPSYLNICPVYAMHPFTVLAFDLSKPVPMGMNASMENAAPNMKSPTEAEITPGTIYIFKHRDNKCYRCVILFEDGDNNVSDADRKYMVAFLDTPQVVSVKLKTLFHLGKFTIESYPCALYCCRAVGILEIRKDFGADLNGQINEFYKDKVKRKSGVHALIYKKDDRGDKLIFDCPSILGTSMTMALEIKDVIGHRSVAENDPTALSYDELVSKQLPTVDIDDHNSSVVLDLEESVIAQELGSTNGADCPCNNDNIDDFMQSQRQNPLDNNRDNWDRINESRSSMQSFAINQSQAITANPTPQPTFDESSGEVQTIPESINNLALNGRYLEDGRGTEEIREERSVESRQIGNQVVSQASCNYLEARQNSTQTANAESVCAIISESHAALPTDIQVIPSQHVLNENNHTVLPSVAPIIRNATGHSHIFGRQIPSPAFRRESLSSGNSIQVATFAATTGPCGSNTSRPTAQNTANSSINQDMSISNSSTNARLITIAQDNLNDTENWPNSEREQSATEMESGAEATTNSAVDEFAQVSDDMKGLADSMINFLRLTANSNNQDAFKANIFAMELISTKIPNQLTKRFFTLKIAEAKSLAEGFN | no binding |  |  |
